# The supplement of paper PMC11542785
# Counter-ions that a name gives are not always drawn. Some of the results follow. Single values are uncertain, as repeats are few or missing.
# Tested on: Drosophila melanogaster DPAGT1 (Alg7) RNAi eye model
# Assay: eye size Z-score vs DMSO-treated DPAGT1 model flies; higher = larger eye (suppression of DPAGT1 phenotype)
# Details: 5 uM
Structure (SMILES),eye size Z-score,eye size Z-score (female)
O=C(O)c1cc(=O)c2c(OCC(O)COc3cccc4oc(C(=O)O)cc(=O)c34)cccc2o1 [Cromolyn disodium salt],-0.28,
CCCCOc1ccc(CC(=O)NO)cc1 [Bufexamac],0.55,
CC(=O)OC(C)C[N+](C)(C)C (stereo unspecified) [Methacholine chloride],1.52,
C=CCc1ccccc1OCC(O)CNC(C)C (stereo unspecified) [Alprenolol hydrochloride],-0.24,
NC[C@H]1CC[C@H](C(=O)O)CC1 [Tranexamic acid],0.21,
Oc1c(Cl)cc(Cl)cc1Sc1cc(Cl)cc(Cl)c1O [Bithionol],-0.04,
Cc1ccc(O)c([C@H](CCN(C(C)C)C(C)C)c2ccccc2)c1 [Tolterodine tartrate],-0.38,
Cc1c(O)cccc1C(=O)N[C@@H](CSc1ccccc1)[C@H](O)CN1C[C@H]2CCCC[C@H]2C[C@H]1C(=O)NC(C)(C)C [Nelfinavir mesylate],-0.82,
CCSc1ccc2c(c1)N(CCCN1CCN(C)CC1)c1ccccc1S2 [Thiethylperazine maleate],-0.38,
CN(C)CCC(c1ccccc1)c1ccccn1 (stereo unspecified) [Pheniramine maleate],1.82,
CNCC[C@@H](Oc1cccc2ccccc12)c1cccs1 [(R)-Duloxetine hydrochloride],-0.56,
CC(CCc1ccc(O)cc1)NCCc1ccc(O)c(O)c1 (stereo unspecified) [Dobutamine hydrochloride],0.47,
Nc1ccc(S(N)(=O)=O)cc1 [Sulfanilamide],-0.78,
O=c1[nH]c(=O)n([C@H]2C[C@H](O)[C@@H](CO)O2)cc1/C=C/Br [Brivudine],-0.25,
CCC(C)(C)c1ccc(CC(C)CN2C[C@@H](C)O[C@@H](C)C2)cc1 (stereo partly specified) [Amorolfine hydrochloride],0.52,
CCOC(=O)c1ccc(C#Cc2ccc3c(c2)C(C)(C)CCS3)nc1 [Tazarotene],0.79,
CC[C@]12CCCN3CCc4c(n(c5ccccc45)[C@@](O)(C(=O)OC)C1)[C@@H]32 [Vincamine],-1.01,
CNC1(C)C2CCC(C2)C1(C)C (stereo unspecified) [Mecamylamine hydrochloride],0.39,
CC(=C(CCO)SSCC1CCCO1)N(C=O)Cc1cnc(C)nc1N (stereo in doubt) [Fursultiamine hydrochloride],0.57,
CCC(C)(CN(C)C)OC(=O)c1ccccc1 (stereo unspecified) [Amyleine hydrochloride],1.15,
C=C(NC(=O)C(=C)NC(=O)c1csc(C2=N[C@@H]3c4csc(n4)[C@H]4NC(=O)c5csc(n5)[C@H]([C@](C)(O)[C@@H](C)O)NC(=O)[C@H]5CSC(=N5)/C(=C/C)NC(=O)[C@H]([C@@H](C)O)NC(=O)c5csc(n5)[C@]3(CC2)NC(=O)[C@H](C)NC(=O)C(=C)NC(=O)[C@H](C)NC(=O)[C@H]([C@@H](C)CC)N[C@@H]2C=Cc3c([C@H](C)O)cc(nc3[C@H]2O)C(=O)O[C@@H]4C)n1)C(N)=O [Thiostrepton],0.46,
Cn1c(=O)c2c(ncn2CC(O)CO)n(C)c1=O (stereo unspecified) [Diprophylline],-0.04,
NC(=O)c1cccnc1 [Nicotinamide],-1.51,

Structure (SMILES),eye size Z-score,eye size Z-score (female)
CC(C)(Oc1ccc(C2CC2(Cl)Cl)cc1)C(=O)O (stereo unspecified) [Ciprofibrate],0.32,
NS(=O)(=O)c1cc2c(cc1Cl)NC(Cc1ccccc1)NS2(=O)=O (stereo unspecified) [Benzylhydrochlorothiazide],0.85,
CC1=C(C(=O)O)N2C(=O)[C@@H](NC(=O)[C@H](N)c3ccc(O)cc3)[C@H]2SC1 [Cefadroxil],-0.88,
C=CCN1CCCC1CNC(=O)c1cc2nn[nH]c2cc1OC (stereo unspecified) [Alizapride hydrochloride],1.06,
CC(C)(C)NCC(O)COc1cccc2c1CC(O)C(O)C2 (stereo unspecified) [Nadolol],0.19,
CCOCCn1c(N2CCCN(C)CC2)nc2ccccc21 [Emedastine difumarate],,-1.12
Cc1cccn2c(=O)c(-c3nnn[nH]3)cnc12 [Pemirolast potassium],0.15,
CC[C@H](C)C(=O)O[C@H]1C[C@H](O)C=C2C=C[C@H](C)[C@H](CC[C@@H](O)C[C@@H](O)CC(=O)O)[C@H]21 [Pravastatin],0.06,
CC1=C(C(=O)O)N2C(=O)[C@@H](NC(=O)[C@H](N)c3ccccc3)[C@H]2SC1 [Cephalexin monohydrate],0.26,
Cc1nccn1CC1CCc2c(c3ccccc3n2C)C1=O (stereo unspecified) [Ondansetron hydrochloride],0.77,
CC(=O)NC[C@H]1CN(c2ccc(N3CCOCC3)c(F)c2)C(=O)O1 [Linezolid],0.99,
Nc1nnc(-c2cccc(Cl)c2Cl)c(N)n1 [Lamotrigine],0.39,
Clc1cc(Cl)c(OCC#CI)cc1Cl [Haloprogin],,0.06
Nc1nc(=O)[nH]cc1F [Flucytosine],-0.63,
Cc1cccc(C)c1NC(=O)CN1CCN(CCCC(c2ccc(F)cc2)c2ccc(F)cc2)CC1 [Lidoflazine],-0.8,
NC[C@H]1O[C@H](O[C@H]2[C@H](O)[C@@H](O[C@H]3O[C@H](CO)[C@@H](O)[C@H](N)[C@H]3O)[C@H](N)C[C@@H]2N)[C@H](N)[C@@H](O)[C@@H]1O [Kanamycin B],-0.67,
C=C1[C@H](CO)[C@@H](O)C[C@@H]1n1cnc2c(=O)[nH]c(N)nc21 [Entecavir],0.53,
CC(=O)O[C@]1(C(C)=O)CC[C@H]2[C@@H]3C=C(C)C4=CC(=O)CC[C@]4(C)[C@H]3CC[C@@]21C [Megestrol acetate],-1.14,
CC/C=C(\C(=O)N[C@@H]1C(=O)N2C(C(=O)OCOC(=O)C(C)(C)C)=C(COC(N)=O)CS[C@H]12)c1csc(N)n1 [Cefcapene pivoxil hydrochloride monohydrate],0.8,
Cc1c(F)c(N2CCNC(C)C2)cc2c1c(=O)c(C(=O)O)cn2C1CC1 (stereo unspecified) [Grepafloxacin],-0.18,
C/C(O)=C(\C#N)C(=O)Nc1ccc(C(F)(F)F)cc1 [Teriflunomide],0.12,
N=C(N=C(N)N)N1CCOCC1 [Moroxidine hydrochloride],0.25,
CC(=O)OCC(=O)[C@@]12OC3(CCCC3)O[C@@H]1C[C@H]1[C@@H]3CCC4=CC(=O)C=C[C@]4(C)[C@@]3(F)[C@@H](O)C[C@@]12C [Amcinonide],0.23,

# Some of these compounds in order of SMILES length, ascending:
Structure (SMILES),eye size Z-score,eye size Z-score (female)
N=C(N=C(N)N)N1CCOCC1 [Moroxidine hydrochloride],0.25,
Cc1cccn2c(=O)c(-c3nnn[nH]3)cnc12 [Pemirolast potassium],0.15,
NS(=O)(=O)c1cc2c(cc1Cl)NC(Cc1ccccc1)NS2(=O)=O (stereo unspecified) [Benzylhydrochlorothiazide],0.85,
Cc1cccc(C)c1NC(=O)CN1CCN(CCCC(c2ccc(F)cc2)c2ccc(F)cc2)CC1 [Lidoflazine],-0.8,
